Source: patent US20260209332A1 (SORRISO PHARMACEUTICALS, published 2026)
These are yes or no findings as the source states them, for the method shown. Some entries that bind do so weakly or less than the wild type.

Chains of the proteins cited; added tags and fusions are not shown. Lines headed by an entry give the natural chain unless they say otherwise; changes in a name come on top. Residues count along the entry.
UniProt Q5VWK5, residues 24-353: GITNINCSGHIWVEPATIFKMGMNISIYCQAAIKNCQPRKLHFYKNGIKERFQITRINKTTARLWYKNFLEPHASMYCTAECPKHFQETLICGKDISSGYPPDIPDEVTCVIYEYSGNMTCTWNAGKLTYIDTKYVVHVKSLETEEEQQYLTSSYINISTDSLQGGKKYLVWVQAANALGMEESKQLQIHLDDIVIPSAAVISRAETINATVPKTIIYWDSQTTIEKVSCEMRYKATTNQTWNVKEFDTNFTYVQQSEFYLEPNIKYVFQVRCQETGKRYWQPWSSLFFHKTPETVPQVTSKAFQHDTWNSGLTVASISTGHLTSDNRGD
UniProt Q9NPF7: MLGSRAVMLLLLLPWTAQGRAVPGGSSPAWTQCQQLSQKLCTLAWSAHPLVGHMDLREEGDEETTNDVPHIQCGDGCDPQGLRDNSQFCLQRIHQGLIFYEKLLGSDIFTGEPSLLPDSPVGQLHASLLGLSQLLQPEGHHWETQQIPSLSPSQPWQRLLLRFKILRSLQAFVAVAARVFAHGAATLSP

Target: IL-23 receptor (UniProt Q5VWK5)
Test: IL-23/IL-23R ELISA, IL-23 alone without inhibitor; concentration not shown

## interleukin-23 (IL-23) (from UniProt Q9NPF7 20-189; P29460 23-328) (ligand)
  binding: binds
